PubChem BioAssay AID652259 | Drosophila RNAi Screening Center – 2013

- Purpose: 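Genome-wide hunt for genes that control Wingless pathway activity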 (primary screen)
- Cell system: Drosophila clone 8 imaginal disc epithelial cells
- Knock-down reagent: long dsRNA against Drosophila genes
- Treatment: pathway stimulated by co-transfected Wingless expression plasmid
- Read-out: 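Dual luciferase reads per well after Wingless plasmid stimulation: reporter firefly light and Renilla control light; activity is firefly divided by Renilla, a ratio not deposited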
- Direction: firefly reporter light: higher = more Wg reporter light, before normalisation; Renilla control light: higher = more transfected or surviving cells
- Rule for the call: 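a knock-down is a candidate when at least two out of four statistical tests show it departing from its plate mean; one test alone signals a weak candidate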
- Calls: active = candidate regulator (raises or lowers reporter); inactive = not a candidate
In all, the deposit lists about 22,000 reagents; below is a random part of those with a known target gene and a result. Of all reagents, 233 (1.1%) were called active. 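Light values are raw, unnormalised plate reads; the ratio scores behind the reporter calls were not deposited.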 Names joined by + are all predicted targets of the reagent. The record does not give: the amount of reagent, the time to read-out, the dose of the treatment.

| target gene | dsRNA | reporter change call, replicate 1 | firefly reporter light, replicate 1 | firefly reporter light, replicate 2 | Renilla control light, replicate 1 | Renilla control light, replicate 2 | Outcome |
| --- | --- | --- | --- | --- | --- | --- | --- |
| Rap2l | DRSC04646 | – | 3088 | 5757 | 432 | 1936 | inactive |
| wmd | DRSC04436 | – | 5936 | – | 1664 | – | inactive |
| Ir7d | DRSC18010 | – | 28432 | – | 14148 | – | inactive |
| RpS15Ab + RpS15Aa | DRSC06129 | – | 1987 | 4646 | 577 | 1996 | inactive |
| RpS15Ab + RpS15Aa | DRSC19831 | – | 8664 | – | 5813 | – | inactive |
| SMC1 | DRSC16846 | – | 26499 | – | 14961 | – | inactive |
| obst-J | DRSC10821 | – | 17093 | – | 4928 | – | inactive |
| CadN | DRSC03286 | – | 3810 | 9668 | 1193 | 4544 | inactive |
| CG32196 | DRSC09548 | – | 4136 | – | 1636 | – | inactive |
| wap | DRSC20626 | – | 3812 | 8054 | 1193 | 2784 | inactive |
| Sos | DRSC03439 | Wg reporter activity raised | 5248 | 11684 | 816 | 2485 | active |
| CG43902 | DRSC17850 | – | 31434 | – | 14250 | – | inactive |
| CG43902 | DRSC17999 | – | 33379 | – | 7907 | – | inactive |
| tbrd-1 | DRSC14601 | – | 13937 | – | 10186 | – | inactive |
| Nlg4 | DRSC15108 | – | 24048 | – | 5852 | – | inactive |
| Nlg4 | DRSC15109 | – | 17712 | – | 3640 | – | inactive |
| Nlg4 | DRSC15700 | – | 15187 | – | 3494 | – | inactive |
| Nlg4 | DRSC15701 | – | 14954 | – | 1431 | – | inactive |
| Nlg4 | DRSC22243 | – | 5.00e5 | 4.15e5 | 2.30e5 | 2.05e5 | inactive |
| Sqor | DRSC08453 | – | 4441 | – | 2101 | – | inactive |
| Polr2M | DRSC15513 | – | 18443 | – | 3387 | – | inactive |

Not a retest: entries from further up.
| target gene | dsRNA | reporter change call, replicate 1 | firefly reporter light, replicate 1 | firefly reporter light, replicate 2 | Renilla control light, replicate 1 | Renilla control light, replicate 2 | Outcome |
| --- | --- | --- | --- | --- | --- | --- | --- |
| Nlg4 | DRSC15700 | – | 15187 | – | 3494 | – | inactive |
| Nlg4 | DRSC15701 | – | 14954 | – | 1431 | – | inactive |

The listing continues:
| target gene | dsRNA | reporter change call, replicate 1 | firefly reporter light, replicate 1 | firefly reporter light, replicate 2 | Renilla control light, replicate 1 | Renilla control light, replicate 2 | Outcome |
| --- | --- | --- | --- | --- | --- | --- | --- |
| CG2794 | DRSC00534 | – | 2923 | 6219 | 1164 | 2662 | inactive |
| regucalcin | DRSC18908 | – | 3261 | – | 1373 | – | inactive |
| regucalcin | DRSC20366 | – | 15600 | – | 7282 | – | inactive |
| MED23 + CG3700 | DRSC04406 | – | 2701 | 5708 | 643 | 2732 | inactive |
| MED23 + CG3700 | DRSC04407 | – | 5803 | – | 1888 | – | inactive |
| CG11964 | DRSC14447 | – | 6026 | – | 1925 | – | inactive |
| Acp26Ab | DRSC01856 | – | 4337 | 8233 | 1381 | 3149 | inactive |
| CG31681 | DRSC00107 | – | 28450 | – | 14145 | – | inactive |
| Gba1b | DRSC21531 | – | 4.26e5 | 5.06e5 | 2.12e5 | 1.99e5 | inactive |
| CG9016 | DRSC03127 | – | 2954 | 5081 | 933 | 1105 | inactive |
| CG14636 | DRSC12223 | – | 14246 | – | 4534 | – | inactive |
| CG13085 | DRSC02189 | – | 3116 | 6562 | 859 | 2291 | inactive |
| CG13728 | DRSC10056 | – | 6920 | – | 2816 | – | inactive |
| CG7164 | DRSC03018 | – | 2172 | 8040 | 828 | 5011 | inactive |
| SLC5A11 | DRSC03088 | – | 5200 | – | 2941 | – | inactive |
| EndoGI | DRSC01964 | – | 2435 | 3259 | 1018 | 1916 | inactive |
| Desat2 | DRSC15919 | – | 18472 | – | 4298 | – | inactive |
| CG9922 | DRSC16579 | – | 17683 | – | 5125 | – | inactive |
| CG2983 | DRSC00558 | – | 3264 | 11414 | 1190 | 3676 | inactive |
| CG8468 | DRSC07190 | – | 7680 | – | 2970 | – | inactive |
| Zw | DRSC20303 | – | 1892 | 6496 | 869 | 2265 | inactive |
| Tgi | DRSC09793 | – | 5484 | – | 2756 | – | inactive |
| Tgi | DRSC09794 | – | 7296 | – | 2240 | – | inactive |
| CG13403 | DRSC19535 | – | 20880 | – | 9780 | – | inactive |
| CG13325 | DRSC06362 | – | 7880 | – | 3136 | – | inactive |
| CG33127 | DRSC00011 | – | 20981 | – | 12085 | – | inactive |
| Acp98AB | DRSC21837 | – | 3.73e5 | 4.50e5 | 2.15e5 | 2.56e5 | inactive |
| mav | DRSC17149 | – | 21341 | – | 16214 | – | inactive |
